Measured values published in PubChem BioAssay AID330 (DTP/NCI, 2004).
The list is a part of this screen's results and no random one: it is rich in T/C values a quarter to a half above the control, in often repeated tests (any T/C) and in doses without a T/C. Other doses and runs of a compound stand elsewhere. T/C is the treated group as % of the vehicle group. Some entries give survivors of the animals treated and no T/C: the source files T/C as zero there, which appears to mark a toxic dose or a test without result, not a measured value. Some doses without a T/C left all or most animals alive at the check, yet need not have been tolerated: survival well below the control is almost never listed, so the zero probably covers shortened survival too. Counts of survivors are from the toxicity check (mostly the fifth day) where no day follows; animals may have died later. Schedules are NCI's codes, read here as Q, the interval in days (D) or hours (H), X, the number of doses. Some entries were tested several times; the results are listed from low to high. Marks such as (2×) stand for listed records that agree. For survival time, this PubChem deposit counts one and a half times the control or more as active, and values a quarter to a half above the control carry no call in these data; other NCI protocols may use other cut-offs.

Test system: P388 leukemia ip, CD2F1 mice, survival T/C
Assay: NCI In Vivo Anticancer Drug Screen. Data for tumor model P388 Leukemia (intraperitoneal) in CD2F1 (CDF1) mice
Conditions: T/C endpoint: median survival time, higher T/C = longer survival
[1] = dose: 50.0 mg/kg/injection, schedule: Q01DX005 (ip), vehicle: saline with Tween-80
[2] = dose: 50.0 mg/kg/injection, schedule: Q01DX009 (ip), vehicle: saline
[3] = dose: 100.0 mg/kg/injection, schedule: Q01DX009 (ip), vehicle: saline
[4] = dose: 200.0 mg/kg/injection, schedule: Q01DX009 (ip), vehicle: saline
[5] = dose: 200.0 mg/kg/injection, schedule: Q01DX005 (ip), vehicle: Klucel (hydroxypropylcellulose) (HPC)
[6] = dose: 200.0 mg/kg/injection, schedule: Q01DX009 (ip), vehicle: Klucel (hydroxypropylcellulose) (HPC)
[7] = dose: 200.0 mg/kg/injection, schedule: Q04DX003 (ip), vehicle: saline

Structure (SMILES): COc1cc2c(c(O)c1O)-c1ccc(OC)c(=O)cc1C(NC(C)=O)CC2 (stereo not given)
- T/C (dose: 120.0 mg/kg/injection, schedule: Q01DX009 (ip), vehicle: distilled water + Tween-80): 129 % of control

Structure (SMILES): O=C(Nc1ccc(C2=NCCN2)cc1)c1cc2cc(C3=NCCN3)ccc2o1
- survivor count (dose: 100.0 mg/kg/injection, schedule: Q04DX003 (ip), vehicle: suspension in saline): 2 of 6
- survivor count (dose: 200.0 mg/kg/injection, schedule: Q04DX003 (ip), vehicle: suspension in saline): 2 of 6
- survivor count (dose: 400.0 mg/kg/injection, schedule: Q04DX003 (ip), vehicle: suspension in saline): 0 of 6

Structure (SMILES): O=CN1CCCC1Cc1ccccc1 (stereo not given)
- survivor count (dose: 200.0 mg/kg/injection, schedule: Q01DX001 (ip), vehicle: Klucel (hydroxypropylcellulose) (HPC)): 3 of 6

Structure (SMILES): COc1cc2c(cc1OC)[C@H](c1cc(Br)c(O)c(OC)c1)[C@H]1C(=O)OCC1C2 (stereo not given in full)
- survivor count [1]: 6 of 6

Structure (SMILES): C1=Nc2ccccc2N=Cc2ccccc2NCCNc2ccccc21
- survivor count [2]: 6 of 6
- survivor count [3]: 6 of 6
- survivor count [4]: 6 of 6

Structure (SMILES): Cc1ccc(-c2cc(=O)c3cccc(CC(=O)O)c3o2)cc1
- T/C (dose: 50.0 mg/kg/injection, schedule: Q01DX005 (ip), vehicle: Klucel (hydroxypropylcellulose) (HPC)): 130 % of control
- survivor count (dose: 100.0 mg/kg/injection, schedule: Q01DX005 (ip), vehicle: Klucel (hydroxypropylcellulose) (HPC)): 6 of 6
- T/C [5]: 138 % of control

Structure (SMILES): CCCCCCCCCCC/C=C/[N+](=O)[O-]
- survivor count (dose: 80.0 mg/kg/injection, schedule: Q01DX005 (ip), vehicle: Klucel (hydroxypropylcellulose) (HPC)): 0 of 6

Structure (SMILES): O=C1Cc2ccccc2N1C(=O)c1cccc(Br)c1
- survivor count (dose: 400.0 mg/kg/injection, schedule: Q01DX001 (ip), vehicle: Klucel (hydroxypropylcellulose) (HPC)): 3 of 6

Structure (SMILES): CC(C)(C)C1(C(C)(C)C)CO1
- survivor count (dose: 25.0 mg/kg/injection, schedule: Q01DX009 (ip), vehicle: saline): 5 of 6
- survivor count [2]: 6 of 6
- survivor count [3]: 6 of 6
- survivor count [4]: 0 of 6

Structure (SMILES): CC1(C)CN(C2CCCCC2)CN2C1OCC2(C)C (stereo not given)
- T/C (dose: 40.0 mg/kg/injection, schedule: Q01DX009 (ip), vehicle: saline with Tween-80): 125 % of control
- T/C (dose: 160.0 mg/kg/injection, schedule: Q01DX009 (ip), vehicle: saline with Tween-80): 125 % of control

Structure (SMILES): COc1ccc(OCCC(=O)O)cc1
- survivor count (dose: 12.5 mg/kg/injection, schedule: Q01DX009 (ip), vehicle: saline with Tween-80): 6 of 6

Structure (SMILES): CCCNC(=O)OCc1c(COC(=O)NCCC)c(-c2ccc(Cl)c(Cl)c2)n2c1CCC2
- T/C (dose: 5.0 mg/kg/injection, schedule: Q01DX009 (ip), vehicle: distilled water + Tween-80): 125 % of control (2×)
- T/C (dose: 10.0 mg/kg/injection, schedule: Q01DX009 (ip), vehicle: distilled water + Tween-80): 134 and 145 % of control
- T/C (dose: 20.0 mg/kg/injection, schedule: Q01DX009 (ip), vehicle: distilled water + Tween-80): 136 % of control
- T/C (dose: 25.0 mg/kg/injection, schedule: Q01DX009 (ip), vehicle: distilled water + Tween-80): 141 % of control
- survivor count (dose: 200.0 mg/kg/injection, schedule: Q01DX009 (ip), vehicle: distilled water + Tween-80): 0 of 6

Structure (SMILES): CC(=O)Nc1ccc(S(=O)(=O)N/N=c2/sc3ccccc3n2C)cc1N
- survivor count [2]: 6 of 6

Structure (SMILES): CC(C)(S[S-])S[S-].[Ti].[c-]1[c-][c-][cH-][c-]1.[c-]1[c-][c-][cH-][c-]1
- survivor count (dose: 60.0 mg/kg/injection, schedule: Q01DX005 (ip), vehicle: saline + Tween-80 + alcohol): 0 of 6
- survivor count (dose: 120.0 mg/kg/injection, schedule: Q01DX005 (ip), vehicle: saline + Tween-80 + alcohol): 0 of 6
- survivor count (dose: 240.0 mg/kg/injection, schedule: Q01DX005 (ip), vehicle: saline + Tween-80 + alcohol): 0 of 6

Structure (SMILES): Cc1ccc(SC(=O)N2CCN(C(=O)Sc3ccc(C)cc3)CC2)cc1
- survivor count [6]: 6 of 6

Structure (SMILES): Cc1nn(C(=O)c2ccncc2)c(C)c1N=Nc1nc2ccc([N+](=O)[O-])cc2s1
- survivor count (dose: 400.0 mg/kg/injection, schedule: Q04DX002 (ip), vehicle: saline with Tween-80): 0 of 6

Structure (SMILES): CCCCCCCCCCCCCCCCC1=C(C(=O)OC)NC(N)=NC1O (stereo not given)
- survivor count (dose: 240.0 mg/kg/injection, schedule: Q01DX005 (ip), vehicle: saline with Tween-80): 0 of 6

Structure (SMILES): O=C(CBr)N1c2ccccc2S(=O)(=O)c2ccc3ccccc3c21
- T/C (dose: 100.0 mg/kg/injection, schedule: Q01DX009 (ip), vehicle: Klucel (hydroxypropylcellulose) (HPC)): 125 and 134 % of control
- T/C [6]: 131 % of control

Structure (SMILES): Cn1c(CN(Cc2nc3ccccc3n2C)Cc2nc3ccccc3n2C)nc2ccccc21
- T/C [1]: 128 % of control
- survivor count (dose: 100.0 mg/kg/injection, schedule: Q01DX005 (ip), vehicle: saline with Tween-80): 5 of 6 (2×) and 6 of 6
- survivor count (dose: 200.0 mg/kg/injection, schedule: Q01DX005 (ip), vehicle: saline with Tween-80): 0 of 6

Structure (SMILES): COc1cc2c(cc1OC)C1C(C)c3ccc(OC)c(OC)c3CN1CC2 (stereo not given)
- survivor count [3]: 6 of 6
- survivor count [4]: 6 of 6

Structure (SMILES): COc1cc2c(cc1O)CCCCC2O (stereo not given)
- survivor count (dose: 25.0 mg/kg/injection, schedule: Q01DX009 (ip), vehicle: DMSO): 6 of 6
- survivor count (dose: 50.0 mg/kg/injection, schedule: Q01DX009 (ip), vehicle: DMSO): 6 of 6
- survivor count (dose: 100.0 mg/kg/injection, schedule: Q01DX009 (ip), vehicle: DMSO): 6 of 6
- survivor count (dose: 200.0 mg/kg/injection, schedule: Q01DX009 (ip), vehicle: DMSO): 3 of 6
- survivor count (dose: 400.0 mg/kg/injection, schedule: Q01DX009 (ip), vehicle: DMSO): 1 of 6

Structure (SMILES): CCN(CC)[Si](C)(C)C
- survivor count (dose: 240.0 mg/kg/injection, schedule: Q01DX005 (ip), vehicle: saline): 0 of 6

Structure (SMILES): CN1CCC(OC(=O)c2ccc3ncccc3c2)CC1
- survivor count [7]: 0 of 6

Structure (SMILES): CC1(C)N=C(N)N=C(N)N1c1ccccc1
- survivor count (dose: 100.0 mg/kg/injection, schedule: Q04DX003 (ip), vehicle: saline): 1 of 6 and 3 of 6
- survivor count [7]: 0 of 6
- survivor count (dose: 400.0 mg/kg/injection, schedule: Q04DX003 (ip), vehicle: saline): 0 of 6

Structure (SMILES): O=C(O)CS(=O)(=O)N1CCOCC1
- survivor count [5]: 6 of 6

Structure (SMILES): COc1cc2c(c(OC)c1OC)-c1ccc(S(=O)(=O)Cc3ccccc3)c(=O)cc1C(NC(C)=O)CC2 (stereo not given)
- survivor count (dose: 50.0 mg/kg/injection, schedule: Q01DX009 (ip), vehicle: Klucel (hydroxypropylcellulose) (HPC)): 0 of 6 and 2 of 6

Structure (SMILES): NC(Cc1ccc(O)cc1)C(=O)OC1CCCCC1 (stereo not given)
- survivor count (dose: 100.0 mg/kg/injection, schedule: Q04DX003 (ip), vehicle: saline with Tween-80): 6 of 6

Structure (SMILES): CCCCCC(CN(C)C)C(=O)/C=C/c1ccc(Cl)c(Cl)c1 (stereo not given)
- survivor count [2]: 0 of 6

Structure (SMILES): COc1ccc2nc3cc(Cl)ccc3c(NCCCCNc3c4ccc(Cl)cc4nc4ccc(OC)nc34)c2n1
- survivor count (dose: 400.0 mg/kg/injection, schedule: Q04DX003 (ip), vehicle: saline with Tween-80): 6 of 6
